From patent US20150023958A1 (SAMSUNG ELECTRONICS, published 2015)
Results are given in words; binding and its absence hold for the method and conditions named. Some results given as binding are weak or reduced against the parent protein; the word gives no strength.

How the values were obtained:
Assay in all cases: ELISA, ligand coated on plate
[1] = target: T1, human Ang2 (human, UniProt O15123 19-496)
T1 construct: Bought protein (R&D Systems); also called A2; angiopoietin 2
T1 sequence (looked up): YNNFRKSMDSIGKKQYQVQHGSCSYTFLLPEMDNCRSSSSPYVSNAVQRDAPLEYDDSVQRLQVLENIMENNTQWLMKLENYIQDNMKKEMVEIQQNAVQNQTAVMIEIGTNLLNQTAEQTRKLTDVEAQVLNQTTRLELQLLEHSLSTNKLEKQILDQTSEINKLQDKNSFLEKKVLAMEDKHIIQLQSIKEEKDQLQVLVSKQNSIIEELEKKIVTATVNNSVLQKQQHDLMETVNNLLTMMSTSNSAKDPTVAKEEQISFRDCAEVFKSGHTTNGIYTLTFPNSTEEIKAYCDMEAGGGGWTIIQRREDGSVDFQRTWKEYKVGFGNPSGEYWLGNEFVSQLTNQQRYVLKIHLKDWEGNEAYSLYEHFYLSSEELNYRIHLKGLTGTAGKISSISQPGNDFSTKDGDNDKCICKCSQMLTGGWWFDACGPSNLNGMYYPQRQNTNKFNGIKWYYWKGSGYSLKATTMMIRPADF

[2] = target: T2, human VEGF-C (human, UniProt P49767 103-227)
T2 construct: Bought protein (R&D Systems); also called VC; Vascular endothelial growth factor C
T2 sequence (looked up): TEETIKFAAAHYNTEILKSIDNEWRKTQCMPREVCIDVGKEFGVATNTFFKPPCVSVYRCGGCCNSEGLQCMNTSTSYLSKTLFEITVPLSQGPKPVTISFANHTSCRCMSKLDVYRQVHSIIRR

[3] = target: T3, human VEGF-D (human, UniProt O43915 93-201, limits assumed)
T3 construct: Bought protein (R&D Systems); also called Vascular endothelial growth factor D
T3 sequence (looked up): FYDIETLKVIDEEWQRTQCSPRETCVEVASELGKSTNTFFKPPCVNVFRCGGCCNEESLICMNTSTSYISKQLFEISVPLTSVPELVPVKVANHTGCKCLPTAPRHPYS

Measured: binding

B1: AV-body 2 (Fc fusion)
chain: AMDLILINSLPLVSDAETSLTCIASGWRPHEPITIGRDFEALMNQHQDPLEVTQDVTREWAKKVVWKREKASKINGAYFCEGRVRGEAIRIRTMKMRQQASFLPATLTMTVDKGDNVNISFKKVLIKEEDAVIYKNGSFIHSVPRHEVPDILEVHLPHAQPQDAGVYSARYIGGNLFTSAFTRLIVRRCEAQKWGPECNHLCTACMNNGVCHEDTGECICPPGFMGRTCEKACELHTFGRTCKERCSGQEGCKSYVFCLPDPYGCSCATGWKGLQCNEACHPGFYGPDCKLRCSCNNGEMCDRFQGCLCSPGWQGLQCEREGIEFMQSKVLLAVALWLCVETRAASDYRSPFIASVSDQHGVVYITENKNKTVVIPCLGSISNLNVSLCARYPEKRFVPDGNRISWDSKKGFTIPSYMISYAGMVFCEAKINDESYQSIMYIVVVVGEQPFINKPDTLLVNRKDAMWVPCLVSIPGLNVTLRSQSSVLWPDGQEVVWDDRRGMLVSTPLLHDALYLQCETTWGDQDFLSNPFLVHITG
notes: also called fusion polypeptide AV-body 2; Tie2-ECD/R2-2/R3-2-Fc; not shown: Fc fragment of human IgG1, fused to the C-terminus through the pFUSE-hIgG1-Fc1 vector (InvivoGen)
binds: all assays above
